In patent publication US20180230398A1, “PERFUME SYSTEMS” (The Procter & Gamble Company, priority 2014, published 2018):
Where a name gives a salt, the structure may show the parent alone.

Test: Character description (odour character) of the PRMs of Table 1
Settings: odour character in words
In the case of `CC1(C)[C@H]2CC=C(CCCCO)[C@@H]1C2` [Molecule 6, 4-((1R,5S)-6,6-dimethylbicyclo [3.1.1]hept-2-en-2-yl)butan-1-ol], the Character description is reported as “woody, earthy”.
In the case of `CCC1(C(C)=O)CCC(C)=C(C)C1` (racemic) [Molecule 41, 1-(1-(R,S)-ethyl-3,4-dimethyl-cyclohex-3-en-1-yl)ethanone], the Character description is reported as “floral, pine needles, fresh (lime)”.
For `COc1ccc(C=O)cc1OCC(C)C` [Molecule 39, 3-isobutoxy-4-methoxybenz-aldehyde], the Character description was “sweet”.
With `CCCC1(C#N)CCC(C)=C(C)C1` (racemic) [Molecule 45, 3,4-dimethyl-1-(R,S)-propylcyclohex-3-enecarbonitnle] the Character description was “citrus, herbal”.
With `CC1CC2(C)C(C)CC1(C)OC2C` (centres unmarked) [Molecule 98, 1,3,4,6,8-pentamethyl-2-oxa-bicyclo[2.2.2] octane] the Character description was “herbal, camphor”.
For `CC1CC[C@@H](CO)C[C@@H]1C` (stereo partly drawn) [Molecule 76, (R,S)-(3,4-dimethylcyclohex-yl)methanol], the Character description was “green (apple)”.
In the case of `CC(C)=CCC1(C=O)CCC(C)=C(C)C1` (racemic) [Molecule 55, 3,4-dimethyl-1-(R,S)-(3-methylbut-2-enyl)cyclohex-3-enecarbaldehyde], the Character description is reported as “floral (geranium)”.
For `CC(C)COC(=O)C1CCC(C)C(C)C1` (centres unmarked) [Molecule 114, isobutyl 3,4-dimethylcyclohex-anecarboxylate], the Character description was “fruity, butyric”.
In the case of `CC[C@](C)(CCC=C(C)C)[C@@H](C)O` (racemic) [Molecule 14, 3-(R,S)-ethyl-3,7-dimethyloct-6-en-2-(R,S)-ol], the Character description is reported as “floral (lilac), clean”.
In the case of `C=CCC1(C(C)O)CCC(C)=C(C)C1` (racemic) [Molecule 47, 1-(1-(R,S)-allyl-3,4-dimethyl-cyclohex-3-en-1-yl)ethanol], the Character description is reported as “woody”.
In the case of `CCC(C)(CC=C(C)C)C(C)=O` (racemic) [Molecule 17, 3-(R,S)-ethyl-3,6-dimethylhept-5-en-2-one], the Character description is reported as “citrus, fruity, fresh”.
With `CC(C)=CCCC(C)(C)/C(C)=N/O` [Molecule 4, (E,Z)-3,3,7-trimethyloct-6-en-2-one oxime] the Character description was “green, earthy”.
With `CC(=O)C(C)(C)CC=C(C)C` [Molecule 140, 3,3,6-trimethylhept-5-en-2-one] the Character description was “citrus, fresh, grapefruit”.
For `CC(=O)OC[C@]1(C)CCC(C)[C@@H](C)C1` (stereo partly drawn) [Molecule 78, (R,S)-(1,3,4-trimethyl-cyclohexyl)meth-yl acetate], the Character description was “fruity, herbal”.
In the case of `COC(=O)[C@@H]1CCC(C)[C@@H](C)C1` (stereo partly drawn) [Molecule 70, (R,S)-methyl 3,4-dimethylcyclohex-anecarboxylate], the Character description is reported as “fruity (pineapple)”.
With `CCCCC1(C#N)CCC(C)=C(C)C1` (racemic) [Molecule 143, 1-(R,S)-butyl-3,4-dimethyl-cyclohex-3-enecarbonitrile] the Character description was “floral (rose, violet), herbal”.
For `CC(=O)C(C)(CC=C(C)C)C(C)C` (centres unmarked) [Molecule 3, 3-isopropyl-3,6-dimethylhept-5-en-2-one], the Character description was “herbal, aromatic”.
For `CCCCC(=O)C(C)(CC)CCC=C(C)C` (racemic) [Molecule 13, 6-(R,S)-ethyl-6,10-dimethylundec-9-en-5-one], the Character description was “herbal, floral”.
For `COC(=O)C1(C(C)C)CCC(C)=C(C)C1` (racemic) [Molecule 136, methyl 1-(R,S)-isopropyl-3,4-dimethylcyclohex-3-enecarboxylate], the Character description was “violet”.
In the case of `CCC1(C(=O)OC)CCC(C)=C(C)C1` (racemic) [Molecule 126, methyl 1-(R,S)-ethyl-3,4-dimethyl-cyclohex-3-enecarboxylate], the Character description is reported as “fresh, fruity, floral”.
In the case of `C=CCC(C)(CCC=C(C)C)C(C)=O` (racemic) [Molecule 119, 3-(R,S)-allyl-3,7-dimethyloct-6-en-2-one], the Character description is reported as “floral”.
With `C=CCC1(C#N)CCC(C)=C(C)C1` (racemic) [Molecule 44, 1-(R,S)allyl-3,4-dimethylcyclohex-3-enecarbonitrile] the Character description was “green, violet”.
In the case of `Cc1ccc(CC2=CC[C@H]3C[C@@H]2C3(C)C)o1` [Molecule 5, 2-(((1R,5S)-6,6-dimethylbicyclo [3.1.1]hept-2-en-2-yl)methyl)-5-methylfuran], the Character description is reported as “woody, terpenic”.
For `CCCC[C@@H](O)[C@](C)(CC)CCC=C(C)C` (racemic) [Molecule 15, 6-(R,S)-ethyl-6,10-dimethylundec-9-en-5-(R,S)-ol], the Character description was “floral, herbal,”.
With `CCCOc1cc(C=O)ccc1O` [Molecule 33, 4-hydroxy-3-propoxybenz-aldehyde] the Character description was “sweet, medicinal, mint”.
For `C=CCC(C)(C#N)CCC=C(C)C` (racemic) [Molecule 60, 2-(R,S)-allyl-2,6-dimethylhept-5-enenitrile], the Character description was “celery, mussels, sea”.
For `CC1=C(C)CC(C(=O)OC(C)(C)C)CC1` (centres unmarked) [Molecule 116, tert-butyl 3,4-dimethylcyclohex-3-enecarboxylate], the Character description was “herbal, aromatic”.
For `CCCCC1(C(C)=O)CCC(C)=C(C)C1` (racemic) [Molecule 144, 1-(1-(R,S)-butyl-3,4-dimethyl-cyclohex-3-enyl)ethanone], the Character description was “spicy”.
With `Cc1cccc(CC(C)(C)C(C)(C)O)c1` [Molecule 110, 2,3,3-trimethyl-4-m-tolylbutan-2-ol] the Character description was “dark chocolate”.
With `CNC(=O)C1(C)CCC(C)=C(C)C1` (racemic) [Molecule 139, N,1-(R,S),3,4-tetramethyl-cyclohex-3-enecarboxamide] the Character description was “solventy, fruity”.
For `CCOC(=O)C1CCC(C)=C(C)C1` (racemic) [Molecule 105, (R,S)-ethyl 3,4-dimethylcyclohex-3-enecarboxylate], the Character description was “fruity, herbal, spicy”.
With `CC(C)=CCC1(C#N)CCC(C)=C(C)C1` (racemic) [Molecule 24, 3,4-dimethyl-1-(R,S)-(3-methylbut-2-en-1-yl)cyclohex-3-enecarbonitrile] the Character description was “mussel, terpenic”.
With `CCC1(C(C)O)CCC(C)=C(C)C1` (racemic) [Molecule 128, 1-(1-(R,S)-ethyl-3,4-dimethylcyclohex-3-enyl)ethanol] the Character description was “floral, lilac”.
With `CCC(C)(CCC=C(C)C)C(C)=O` (racemic) [Molecule 12, 3-(R,S)-ethyl-3,7-dimethyloct-6-en-2-one] the Character description was “woody, herbal (lavender)”.
For `CC(C)=CCC1(CO)CCC(C)=C(C)C1` (racemic) [Molecule 134, (3,4-dimethyl-1-(R,S)-(3-methylbut-2-enyl)cyclohex-3-enyl)methanol], the Character description was “herbal, woody, smoky”.
In the case of `CCOc1cc(C(=O)CC(C)C)ccc1O` [Molecule 34, 1-(3-ethoxy-4-hydroxyphenyl)-3-methylbutan-1-one], the Character description is reported as “sweet balsamic, buttery”.
For `C=CC[C@@](C)(CCC=C(C)C)[C@@H](C)O` (racemic) [Molecule 120, 3-(R,S)-allyl-3,7-dimethyloct-6-en-2-(R,S)-ol], the Character description was “floral”.
For `CCCCC1(C(C)O)CCC(C)=C(C)C1` (racemic) [Molecule 145, 1-(1-(R,S)-butyl-3,4-dimethylcyclohex-3-enyl)ethanol], the Character description was “violet, calamus”.
In the case of `CC1=C(C)CC(CO)(C(C)C)CC1` (racemic) [Molecule 129, (1-(R,S)-isopropyl-3,4-dimethyl-cyclohex-3-enyl)methanol], the Character description is reported as “floral, aromatic”.
In the case of `COC(=O)C1C(=C(C)C)CCC1C` (racemic) [Molecule 83, methyl 2-(R,S)-methyl-5(propan-2-ylidene)-cyclopentane-carboxylate], the Character description is reported as “fresh, peppermint”.
For `CCC1(C#N)CCC(C)=C(C)C1` (racemic) [Molecule 40, 1-(R,S)-ethyl-3,4-dimethyl-cyclohex-3-enecarbonitrile], the Character description was “spicy”.
With `CC1CC=CC[C@]1(C)[C@@H](C)OC=O` (stereo partly drawn) [Molecule 95, (R,S)-1-(1,6-dimethylcyclohex-3-enyl)ethyl formate] the Character description was “(soft) woody, spicy”.
With `CC(=O)C1(C)CC=CCC1C` (racemic) [Molecule 85, 1-(1,6-(R,S)-dimethylcyclohex-3-enyl)ethanone] the Character description was “woody, camphoraceous”.
In the case of `CCCOC(=O)[C@@H]1CCC(C)[C@@H](C)C1` (stereo partly drawn) [Molecule 65, (R,S)-propyl 3,4-dimethylcyclohex-anecarboxylate], the Character description is reported as “fruity, floral”.
In the case of `CC(=O)OCC1CCC(C)=C(C)C1` (racemic) [Molecule 72, (R,S)-(3,4-dimethylcyclohex-3-enyl)methyl acetate], the Character description is reported as “fruity (pear, strawberry), chewing gum”.
In the case of `CCCC1(C=O)CCC(C)=C(C)C1` (racemic) [Molecule 50, 3,4-dimethyl-1-(R,S)-propyl-cyclohex-3-enecarbaldehyde], the Character description is reported as “citrus, aldehydic”.
With `CC(=O)O[C@H](C)[C@@]1(C)CCC(C)=C(C)C1` [Molecule 80, (R,S)-1-(1,3,4-trimethylcyclohex-3-enyl)ethyl acetate] the Character description was “fruity, herbal, clean”.
With `CC1=C(C)CC(C#N)CC1` (racemic) [Molecule 21, (R,S)-3,4-dimethylcyclohex-3-enecarbonitrile] the Character description was “almond”.
With `CCOc1cc(C(=O)CC)ccc1O` [Molecule 31, 1-(3-ethoxy-4-hydroxyphenyl) propan-1-one] the Character description was “sweet vanilla, heliotropine”.
In the case of `CC1=C(C)CC(CO)CC1` (racemic) [Molecule 124, (3,4-dimethyl-(R,S)-cyclohex-3-enyl)methanol], the Character description is reported as “floral (green lily)”.
For `CC1=C(C)CC(C(=O)OC(C)C)CC1` (racemic) [Molecule 146, (R,S)-isopropyl 3,4-dimethyl-cyclohex-3-enecarboxylate], the Character description was “white floral, fresh, aldehydic”.
In the case of `CCCCC(O)C(C)(CC)CC=C(C)C` (racemic) [Molecule 20, 6-(R,S)-ethyl-6,9-dimethyldec-8-en-5-ol], the Character description is reported as “floral (lily of the valley)”.
With `CC(C)=CCC(C)(C)COC=O` [Molecule 103, 2,2,5-trimethylhex-4-enyl formate] the Character description was “citrus, gun powder”.
